# Measured values from paper doi:10.1101/2022.03.03.482848.
# Results are given in words; binding and its absence hold for the method and conditions named. In cells and extracts the contact can be indirect. Some results given as binding are weak or reduced against the parent protein; the word gives no strength.
# B1: ABCD3 (mouse, endogenous in liver) (protein, UniProt P55096 1-659)
# chain: MAAFSKYLTARNTSLAGAAFLLLCLLHKRRRALGLHGKKSGKPPLQNNEKEGKKERAVVDKVFLSRLSQILKIMVPRTFCKETGYLLLIAVMLVSRTYCDVWMIQNGTLIESGIIGRSSKDFKRYLFNFIAAMPLISLVNNFLKYGLNELKLCFRVRLTRYLYEEYLQAFTYYKMGNLDNRIANPDQLLTQDVEKFCNSVVDLYSNLSKPFLDIVLYIFKLTSAIGAQGPASMMAYLLVSGLFLTRLRRPIGKMTIMEQKYEGEYRYVNSRLITNSEEIAFYNGNKREKQTIHSVFRKLVEHLHNFIFFRFSMGFIDSIIAKYVATVVGYLVVSRPFLDLAHPRHLHSTHSELLEDYYQSGRMLLRMSQALGRIVLAGREMTRLAGFTARITELMQVLKDLNHGRYERTMVSQQEKGIEGAQASPLVPGAGEIINTDNIIKFDHVPLATPNGDILIQDLSFEVRSGANVLICGPNGCGKSSLFRVLGELWPLFGGRLTKPERGKLFYVPQRPYMTLGTLRDQVIYPDGKEDQKKRGISDQVLKEYLDNVQLGHILEREGGWDSVQDWMDVLSGGEKQRMAMARLFYHKPQFAILDECTSAVSVDVEDYIYSHCRKVGITLFTVSHRKSLWKHHEYYLHMDGRGNYEFKKITEDTVEFGS
# Biological target: T1, MAPL (mouse, endogenous in liver) (mouse (endogenous in liver)) (UniProt Q8VCM5)
# T1 sequence: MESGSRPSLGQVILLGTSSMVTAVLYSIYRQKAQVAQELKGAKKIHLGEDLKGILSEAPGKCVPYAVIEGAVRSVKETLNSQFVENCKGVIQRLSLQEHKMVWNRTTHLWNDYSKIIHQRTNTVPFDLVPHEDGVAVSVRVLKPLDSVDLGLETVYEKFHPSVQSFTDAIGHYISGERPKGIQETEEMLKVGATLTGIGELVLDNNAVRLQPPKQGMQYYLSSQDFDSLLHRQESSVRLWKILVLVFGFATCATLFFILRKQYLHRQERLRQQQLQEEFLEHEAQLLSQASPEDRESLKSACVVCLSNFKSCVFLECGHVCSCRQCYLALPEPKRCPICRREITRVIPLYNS
# Experiment: co-IP
binder,measurement,value
B1,binding,binds
